Data taken from the supplement of paper PMC7666118.
The other results are listed elsewhere or left out.

By UniProt entry, the sequences of proteins in these tests, tags left out. Where a name states a change or a piece, a line headed by the entry shows the natural chain unless it says otherwise.
UniProt P04150: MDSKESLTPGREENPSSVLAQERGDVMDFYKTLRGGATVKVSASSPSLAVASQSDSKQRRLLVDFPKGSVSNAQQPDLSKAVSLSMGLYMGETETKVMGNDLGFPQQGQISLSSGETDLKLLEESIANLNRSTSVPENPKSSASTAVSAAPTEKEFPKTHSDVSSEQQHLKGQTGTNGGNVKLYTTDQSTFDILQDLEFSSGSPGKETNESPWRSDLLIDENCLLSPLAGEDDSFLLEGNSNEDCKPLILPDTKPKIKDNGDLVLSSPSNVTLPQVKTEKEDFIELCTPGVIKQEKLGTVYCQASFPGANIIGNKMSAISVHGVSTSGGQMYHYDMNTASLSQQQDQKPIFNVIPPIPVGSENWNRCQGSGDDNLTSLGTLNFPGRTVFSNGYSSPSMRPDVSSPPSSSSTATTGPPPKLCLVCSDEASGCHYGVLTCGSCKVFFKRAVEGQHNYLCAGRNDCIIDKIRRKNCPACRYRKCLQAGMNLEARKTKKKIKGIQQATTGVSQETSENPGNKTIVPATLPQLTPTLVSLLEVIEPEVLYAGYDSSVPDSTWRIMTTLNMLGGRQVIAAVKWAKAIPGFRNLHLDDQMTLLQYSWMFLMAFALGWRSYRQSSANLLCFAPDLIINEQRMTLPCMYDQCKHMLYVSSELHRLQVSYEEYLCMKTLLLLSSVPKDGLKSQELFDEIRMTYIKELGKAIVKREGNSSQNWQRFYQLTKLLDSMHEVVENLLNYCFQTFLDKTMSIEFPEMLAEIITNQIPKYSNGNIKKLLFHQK
UniProt O75607: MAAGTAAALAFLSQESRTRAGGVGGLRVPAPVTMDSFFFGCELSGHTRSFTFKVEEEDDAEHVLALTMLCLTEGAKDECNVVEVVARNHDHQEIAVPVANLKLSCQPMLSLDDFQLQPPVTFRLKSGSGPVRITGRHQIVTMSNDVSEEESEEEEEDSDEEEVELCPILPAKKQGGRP
UniProt Q15843, whole entry: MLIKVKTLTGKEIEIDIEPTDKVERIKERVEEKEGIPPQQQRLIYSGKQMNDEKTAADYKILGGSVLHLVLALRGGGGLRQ
UniProt Q6IBW4: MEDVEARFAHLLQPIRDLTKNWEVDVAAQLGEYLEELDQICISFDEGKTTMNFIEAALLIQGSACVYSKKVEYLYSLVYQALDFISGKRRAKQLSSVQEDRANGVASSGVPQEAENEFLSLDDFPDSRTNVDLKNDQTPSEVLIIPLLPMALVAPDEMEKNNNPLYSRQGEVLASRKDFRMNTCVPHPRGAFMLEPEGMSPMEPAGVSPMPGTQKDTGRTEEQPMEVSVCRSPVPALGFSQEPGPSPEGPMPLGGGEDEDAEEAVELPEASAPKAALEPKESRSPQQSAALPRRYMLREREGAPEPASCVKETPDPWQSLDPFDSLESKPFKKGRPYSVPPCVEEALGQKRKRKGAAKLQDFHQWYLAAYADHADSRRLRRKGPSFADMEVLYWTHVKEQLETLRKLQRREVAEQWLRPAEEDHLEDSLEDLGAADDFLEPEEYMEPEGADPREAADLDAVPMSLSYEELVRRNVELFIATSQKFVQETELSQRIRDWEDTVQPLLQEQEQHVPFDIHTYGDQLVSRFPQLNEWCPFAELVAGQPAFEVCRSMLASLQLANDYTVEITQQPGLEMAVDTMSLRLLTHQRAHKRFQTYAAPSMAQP
UniProt Q00653: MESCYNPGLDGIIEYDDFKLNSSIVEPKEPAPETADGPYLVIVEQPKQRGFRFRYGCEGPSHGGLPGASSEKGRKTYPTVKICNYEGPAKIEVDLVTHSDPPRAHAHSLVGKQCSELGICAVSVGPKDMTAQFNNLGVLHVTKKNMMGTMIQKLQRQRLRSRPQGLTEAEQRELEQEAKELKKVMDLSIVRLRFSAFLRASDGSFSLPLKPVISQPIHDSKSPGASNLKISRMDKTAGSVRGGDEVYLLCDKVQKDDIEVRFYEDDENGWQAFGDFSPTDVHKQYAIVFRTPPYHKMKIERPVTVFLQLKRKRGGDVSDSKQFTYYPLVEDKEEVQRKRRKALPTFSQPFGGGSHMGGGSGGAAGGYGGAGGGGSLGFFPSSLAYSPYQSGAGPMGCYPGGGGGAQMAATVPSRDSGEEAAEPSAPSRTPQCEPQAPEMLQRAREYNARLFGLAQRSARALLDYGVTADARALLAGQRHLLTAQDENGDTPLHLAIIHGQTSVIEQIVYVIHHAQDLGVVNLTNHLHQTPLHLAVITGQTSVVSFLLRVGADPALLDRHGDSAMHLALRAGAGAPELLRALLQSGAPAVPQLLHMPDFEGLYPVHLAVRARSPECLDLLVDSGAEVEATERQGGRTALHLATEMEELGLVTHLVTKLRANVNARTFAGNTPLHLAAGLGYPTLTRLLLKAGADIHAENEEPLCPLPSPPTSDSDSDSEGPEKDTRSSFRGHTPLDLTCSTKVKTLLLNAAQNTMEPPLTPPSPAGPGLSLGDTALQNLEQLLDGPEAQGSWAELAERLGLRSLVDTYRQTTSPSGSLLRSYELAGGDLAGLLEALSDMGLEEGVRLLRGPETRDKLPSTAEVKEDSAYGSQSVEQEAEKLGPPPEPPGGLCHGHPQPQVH
UniProt P17050: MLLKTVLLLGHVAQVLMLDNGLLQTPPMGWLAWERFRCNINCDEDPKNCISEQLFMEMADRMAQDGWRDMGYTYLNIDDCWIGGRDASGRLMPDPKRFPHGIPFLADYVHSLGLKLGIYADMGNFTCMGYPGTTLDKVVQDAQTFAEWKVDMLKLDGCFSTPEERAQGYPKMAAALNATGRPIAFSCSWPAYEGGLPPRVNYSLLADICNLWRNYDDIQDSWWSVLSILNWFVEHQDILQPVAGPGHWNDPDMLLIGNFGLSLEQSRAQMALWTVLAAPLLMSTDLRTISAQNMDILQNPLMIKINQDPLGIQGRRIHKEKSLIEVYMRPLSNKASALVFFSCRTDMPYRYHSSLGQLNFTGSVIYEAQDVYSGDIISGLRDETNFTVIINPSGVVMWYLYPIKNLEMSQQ
UniProt Q9UHB4: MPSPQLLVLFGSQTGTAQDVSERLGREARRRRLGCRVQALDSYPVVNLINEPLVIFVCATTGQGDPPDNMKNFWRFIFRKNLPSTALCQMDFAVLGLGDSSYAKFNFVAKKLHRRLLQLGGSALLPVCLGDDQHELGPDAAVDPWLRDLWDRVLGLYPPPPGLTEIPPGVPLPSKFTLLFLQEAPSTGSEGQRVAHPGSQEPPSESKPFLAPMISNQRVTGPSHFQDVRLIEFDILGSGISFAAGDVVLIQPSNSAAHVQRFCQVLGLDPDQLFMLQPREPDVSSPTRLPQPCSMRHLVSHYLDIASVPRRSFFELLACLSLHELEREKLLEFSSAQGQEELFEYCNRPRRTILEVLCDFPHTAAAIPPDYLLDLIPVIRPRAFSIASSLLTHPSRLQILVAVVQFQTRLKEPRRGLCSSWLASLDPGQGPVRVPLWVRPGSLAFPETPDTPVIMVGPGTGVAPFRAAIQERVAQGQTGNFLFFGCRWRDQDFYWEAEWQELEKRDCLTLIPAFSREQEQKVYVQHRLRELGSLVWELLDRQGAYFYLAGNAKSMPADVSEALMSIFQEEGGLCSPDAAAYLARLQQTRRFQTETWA
UniProt Q9BVL2: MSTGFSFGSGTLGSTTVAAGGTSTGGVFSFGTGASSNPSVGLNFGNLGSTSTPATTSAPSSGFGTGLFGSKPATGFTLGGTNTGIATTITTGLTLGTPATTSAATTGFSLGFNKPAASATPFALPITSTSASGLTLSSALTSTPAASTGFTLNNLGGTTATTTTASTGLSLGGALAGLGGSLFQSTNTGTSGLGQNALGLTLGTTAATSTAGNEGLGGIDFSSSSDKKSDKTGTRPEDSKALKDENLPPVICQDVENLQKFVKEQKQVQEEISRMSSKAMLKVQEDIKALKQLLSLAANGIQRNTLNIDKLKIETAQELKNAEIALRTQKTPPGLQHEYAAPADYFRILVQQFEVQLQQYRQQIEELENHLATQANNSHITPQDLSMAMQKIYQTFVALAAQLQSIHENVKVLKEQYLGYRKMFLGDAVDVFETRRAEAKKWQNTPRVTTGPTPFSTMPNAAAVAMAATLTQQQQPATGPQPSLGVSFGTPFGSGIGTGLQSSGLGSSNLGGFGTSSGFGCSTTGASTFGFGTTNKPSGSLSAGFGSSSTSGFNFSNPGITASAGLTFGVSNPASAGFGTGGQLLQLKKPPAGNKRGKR
UniProt P30419: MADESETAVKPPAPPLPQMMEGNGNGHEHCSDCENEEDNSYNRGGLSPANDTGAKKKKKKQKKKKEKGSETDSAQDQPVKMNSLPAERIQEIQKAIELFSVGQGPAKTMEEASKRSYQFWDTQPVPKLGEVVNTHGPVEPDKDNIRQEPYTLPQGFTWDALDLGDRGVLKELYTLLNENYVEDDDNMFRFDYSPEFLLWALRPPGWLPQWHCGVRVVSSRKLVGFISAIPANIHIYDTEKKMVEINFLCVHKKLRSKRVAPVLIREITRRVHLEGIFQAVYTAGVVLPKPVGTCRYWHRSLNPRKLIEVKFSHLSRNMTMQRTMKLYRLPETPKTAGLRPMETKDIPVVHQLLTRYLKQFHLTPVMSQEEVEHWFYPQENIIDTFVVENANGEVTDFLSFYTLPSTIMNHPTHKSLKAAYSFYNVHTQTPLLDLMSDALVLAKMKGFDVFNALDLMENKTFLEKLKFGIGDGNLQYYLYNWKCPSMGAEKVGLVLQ
UniProt O43809, whole entry: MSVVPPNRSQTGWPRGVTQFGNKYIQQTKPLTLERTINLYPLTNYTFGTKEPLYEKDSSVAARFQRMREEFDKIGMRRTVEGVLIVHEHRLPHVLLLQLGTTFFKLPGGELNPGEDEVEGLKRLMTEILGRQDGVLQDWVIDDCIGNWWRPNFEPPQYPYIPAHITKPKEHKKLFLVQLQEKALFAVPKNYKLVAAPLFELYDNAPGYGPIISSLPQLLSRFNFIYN
UniProt O75414: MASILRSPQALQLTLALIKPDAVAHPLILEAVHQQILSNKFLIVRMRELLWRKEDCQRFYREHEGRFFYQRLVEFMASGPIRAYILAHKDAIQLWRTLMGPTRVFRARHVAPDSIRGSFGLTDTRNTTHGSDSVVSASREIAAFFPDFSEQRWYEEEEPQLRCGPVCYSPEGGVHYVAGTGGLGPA
UniProt Q9NX14, whole entry: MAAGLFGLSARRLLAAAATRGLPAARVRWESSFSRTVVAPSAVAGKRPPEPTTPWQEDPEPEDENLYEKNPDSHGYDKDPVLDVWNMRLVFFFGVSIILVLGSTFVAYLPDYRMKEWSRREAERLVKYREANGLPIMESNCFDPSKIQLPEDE
UniProt Q9HAN9, whole entry: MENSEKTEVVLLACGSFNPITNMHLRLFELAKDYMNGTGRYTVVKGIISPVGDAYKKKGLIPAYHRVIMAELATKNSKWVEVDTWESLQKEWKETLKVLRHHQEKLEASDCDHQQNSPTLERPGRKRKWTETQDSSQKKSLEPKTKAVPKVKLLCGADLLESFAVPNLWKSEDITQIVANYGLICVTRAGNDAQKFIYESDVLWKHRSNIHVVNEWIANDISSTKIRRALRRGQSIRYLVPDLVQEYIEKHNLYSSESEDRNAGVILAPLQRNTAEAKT
UniProt P18440: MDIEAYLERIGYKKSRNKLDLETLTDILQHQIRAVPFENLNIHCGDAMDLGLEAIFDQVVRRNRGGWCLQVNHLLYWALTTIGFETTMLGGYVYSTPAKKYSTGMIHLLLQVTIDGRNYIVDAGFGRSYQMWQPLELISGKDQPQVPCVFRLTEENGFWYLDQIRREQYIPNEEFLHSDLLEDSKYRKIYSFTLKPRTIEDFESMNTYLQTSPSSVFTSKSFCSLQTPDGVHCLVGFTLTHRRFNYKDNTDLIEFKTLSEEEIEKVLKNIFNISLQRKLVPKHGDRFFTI
UniProt P49321, whole entry: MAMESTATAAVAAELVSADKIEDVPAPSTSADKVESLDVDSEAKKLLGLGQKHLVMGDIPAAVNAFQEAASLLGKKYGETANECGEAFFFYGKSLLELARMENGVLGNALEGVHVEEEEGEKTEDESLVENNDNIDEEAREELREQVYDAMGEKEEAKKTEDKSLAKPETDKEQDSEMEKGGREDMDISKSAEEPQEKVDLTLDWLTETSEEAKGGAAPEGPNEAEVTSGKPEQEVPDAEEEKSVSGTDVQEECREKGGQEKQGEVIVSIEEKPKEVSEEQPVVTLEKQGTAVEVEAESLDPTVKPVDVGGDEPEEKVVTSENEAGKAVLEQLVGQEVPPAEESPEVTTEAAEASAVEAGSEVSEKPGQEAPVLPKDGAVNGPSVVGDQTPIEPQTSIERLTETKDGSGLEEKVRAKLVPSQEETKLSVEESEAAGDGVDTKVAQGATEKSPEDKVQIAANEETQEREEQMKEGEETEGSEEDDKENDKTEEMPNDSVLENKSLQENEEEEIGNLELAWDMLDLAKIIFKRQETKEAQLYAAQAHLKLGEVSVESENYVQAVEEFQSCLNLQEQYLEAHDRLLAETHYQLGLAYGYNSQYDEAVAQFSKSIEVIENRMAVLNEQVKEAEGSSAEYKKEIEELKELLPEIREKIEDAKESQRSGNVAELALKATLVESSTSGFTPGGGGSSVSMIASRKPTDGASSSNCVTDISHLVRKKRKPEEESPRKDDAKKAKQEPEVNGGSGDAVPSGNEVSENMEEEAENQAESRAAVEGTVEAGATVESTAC

compound: COc1ccc(Cn2ccc3cc(C)c(C(=O)NO)cc32)cc1; assay: dose-dependent thermal stabilisation call (2D-TPP, DLPTP, 10% FDR) (binary (1 = stabilised)); higher = stabilised by the compound; settings: system: HL-60 intact cells; concentration range 0.04-10 µM
Method: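 2D thermal proteome profiling in intact HL-60 cells treated with BRD-3811 (0, 0.04, 0.29, 2, 10 uM) for 90 min at 37 C, then heated 3 min at one of 12 temperatures (42-63.9 C). Soluble protein was quantified by TMT10 MS. The value is the DLPTP call of the paper: dose-dependent thermal stabilisation over all temperatures at 10% FDR (F-test of a dose-response against a flat model); one experiment, one call per tested protein.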

| Target | dose-dependent thermal stabilisation call |
| --- | --- |
| NXT2 (UniProt Q9NPJ8) | inactive: 0 |
| NR3C1 (UniProt P04150) | inactive: 0 |
| NPM3 (UniProt O75607) | inactive: 0 |
| NUP160 (UniProt Q12769) | inactive: 0 |
| NLE1 (UniProt Q9NVX2) | inactive: 0 |
| NPC1 (UniProt O15118) | inactive: 0 |
| NUCKS1 (UniProt Q9H1E3) | inactive: 0 |
| NARG2 (UniProt Q659A1) | inactive: 0 |
| NEDD8 (UniProt Q15843) | inactive: 0 |
| NUDT9 (UniProt Q9BW91) | inactive: 0 |
| NCAPH2 (UniProt Q6IBW4) | inactive: 0 |
| NFKB2 (UniProt Q00653) | inactive: 0 |
| NCAPH (UniProt Q15003) | inactive: 0 |
| NUP54 (UniProt Q7Z3B4) | inactive: 0 |
| NEDD1 (UniProt Q8NHV4) | inactive: 0 |
| NOTCH2 (UniProt Q04721) | inactive: 0 |
| NUCB2 (UniProt P80303) | inactive: 0 |
| NUDT5 (UniProt Q9UKK9) | inactive: 0 |
| NLRX1 (UniProt Q86UT6) | inactive: 0 |
| NAGA (UniProt P17050) | inactive: 0 |

| Target | dose-dependent thermal stabilisation call |
| --- | --- |
| NMI (UniProt Q13287) | inactive: 0 |
| NUBP2 (UniProt Q9Y5Y2) | inactive: 0 |
| NDOR1 (UniProt Q9UHB4) | inactive: 0 |
| NUDT19 (UniProt A8MXV4) | inactive: 0 |
| NUPL1 (UniProt Q9BVL2) | inactive: 0 |
| NMT1 (UniProt P30419) | inactive: 0 |
| NUDT21 (UniProt O43809) | inactive: 0 |
| NME6 (UniProt O75414) | inactive: 0 |
| NUDC (UniProt Q9Y266) | inactive: 0 |
| NAPRT1 (UniProt Q6XQN6) | inactive: 0 |
| NDUFAF2 (UniProt Q8N183) | inactive: 0 |
| NDUFB11 (UniProt Q9NX14) | inactive: 0 |
| NUFIP2 (UniProt Q7Z417) | inactive: 0 |
| NT5C2 (UniProt P49902) | inactive: 0 |
| NMNAT1 (UniProt Q9HAN9) | inactive: 0 |
| NAT1 (UniProt P18440) | inactive: 0 |
| NCDN (UniProt Q9UBB6) | inactive: 0 |
| NUP188 (UniProt Q5SRE5) | inactive: 0 |
| NCK1 (UniProt P16333) | inactive: 0 |
| NASP (UniProt P49321) | inactive: 0 |

Given with each value named: part of the list above.
NUDT21 (UniProt O43809)
  dose-dependent thermal stabilisation call: inactive: 0
NME6 (UniProt O75414)
  dose-dependent thermal stabilisation call: inactive: 0
